In article PMC4899803:
These are yes or no findings as the source states them, for the method shown. Binding seen in cells or lysates may run through a third protein. These calls come from enrichment with a bait or labelling near it, and not all partners need be listed.

Chains of the proteins cited; added tags and fusions are not shown. Lines headed by an entry give the natural chain unless they say otherwise; changes in a name come on top.
UniProt P0ABJ9: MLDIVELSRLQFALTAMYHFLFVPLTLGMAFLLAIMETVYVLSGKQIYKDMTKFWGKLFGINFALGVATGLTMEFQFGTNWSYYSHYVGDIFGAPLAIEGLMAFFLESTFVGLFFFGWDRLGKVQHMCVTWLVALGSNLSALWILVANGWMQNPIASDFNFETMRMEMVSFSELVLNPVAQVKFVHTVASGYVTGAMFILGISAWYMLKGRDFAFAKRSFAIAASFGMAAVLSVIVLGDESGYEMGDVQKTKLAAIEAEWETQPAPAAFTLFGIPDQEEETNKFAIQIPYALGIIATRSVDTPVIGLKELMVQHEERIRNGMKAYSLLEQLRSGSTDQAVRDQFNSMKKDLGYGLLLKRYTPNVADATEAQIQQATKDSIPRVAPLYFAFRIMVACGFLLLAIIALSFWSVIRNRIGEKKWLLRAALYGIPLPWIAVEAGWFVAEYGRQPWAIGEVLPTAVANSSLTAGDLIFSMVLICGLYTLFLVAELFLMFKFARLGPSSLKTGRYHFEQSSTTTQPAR

Molecular target: CydA with C-terminal His6-tag (subunit of cytochrome bd from Escherichia coli) (E. coli) (UniProt P0ABJ9)
Assay: affinity purification with mass spectrometry; His6-tagged cytochrome bd (tag on CydA) purified over HisTrap Nickel column and Superdex 200, loaded on Native-PAGE, band excised, in-gel digestion with trypsin, chymotrypsin or GluC, LC-MS/MS

binding: binds
Binder: MWYFAWILGTLLACSFGVITALALEHVESGKAGQEDI [CydX from E. coli]
